# Measured values from the supplement of paper PMC3334620.
# The full ranking holds about 33,000 sequences; the median of “E-score (-0.5 to 0.5)” is about -0.0059, and the highest 2% start at about 0.26. The list shows a part of the results.
# Target: T1, Cin5 (UniProt P40917)
# T1 sequence: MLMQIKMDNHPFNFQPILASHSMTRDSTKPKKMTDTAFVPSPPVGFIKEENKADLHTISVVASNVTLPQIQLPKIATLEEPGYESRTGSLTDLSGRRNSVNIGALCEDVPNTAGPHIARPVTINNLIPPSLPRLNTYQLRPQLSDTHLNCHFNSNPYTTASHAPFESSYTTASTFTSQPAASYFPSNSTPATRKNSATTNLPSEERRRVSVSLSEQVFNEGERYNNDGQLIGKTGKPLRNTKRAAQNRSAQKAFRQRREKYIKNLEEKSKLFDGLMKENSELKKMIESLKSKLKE
# Assay: PBM E-score (8-mer binding enrichment) (E-score (-0.5 to 0.5)); higher = stronger / more preferred TF binding
# Settings: protein concentration: 100 nM; construct: GST-full length
# Protocol: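 Universal 'all 10-mer' protein binding microarrays (Agilent AMADID 015681) probed with GST-tagged S. cerevisiae TFs (full-length or DBD) made by in vitro transcription/translation (PURExpress), about 100-200 nM. Bound TF was detected with fluorescent anti-GST. Each ungapped 8-mer (which stands for itself and its reverse complement) is scored by the PBM enrichment score (E-score), a modified Wilcoxon-Mann-Whitney statistic from -0.5 to +0.5, computed with the Universal PBM Analysis Suite. Scale: above 0.35 generally sequence-specific binding.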
row,Sequence,PBM E-score
1,ACTGTCAA,-0.0196
2,ATGGTGCA,-0.0439
3,CTTGAGTC,-0.136
4,ATAGAGCG,0.0283
5,ACTTCTCT,-0.0899
6,CTGACTTA,0.298
7,AATTGCCC,0.082
8,AGCAGGCT,-0.218
9,CCAGAACG,-0.0604
10,ACCGGTCA,-0.0331
11,ATCGCCCG,-0.0759
12,GTACGCAC,-0.12
13,GAGTCCAA,-0.00014
14,CCATCGTC,0.0447
15,CACTGGTA,0.0077
16,AATAGAAT,0.106
17,GGTACACC,-0.181
18,ATCACTAG,0.0603
19,CAACAGAC,-0.0114
20,TGACGGCA,-0.102
21,AATGTACT,0.208
22,CTAGTCCC,-0.149
23,CAGAAAAC,0.131
24,ACGGCTCG,0.0234
25,GTCAACAC,0.0351

row,Sequence,PBM E-score
1,CAGCTGTA,-0.174
2,TATTCGAA,0.0697
3,CACCGGTA,-0.123
4,ATCGGTGA,0.103
5,CACATTCG,0.0747
6,ATTACCGA,0.138
7,AGTCCACG,-0.176
8,AGATTATC,0.0833
9,AATGCTCA,0.0368
10,CTCCCTAA,-0.261
11,CCGTTATC,0.00955
12,AGCGAAGG,0.0557
13,GACGGAGC,-0.144
14,ACAATCAA,0.109
15,CCCTAGCG,-0.344
16,AAATGATG,0.207
17,AACGACAA,0.114
18,CCGCTTTA,-0.0452
19,GCCCGAAA,0.0994
20,ATAGATTA,0.302
21,CATCGCAG,-0.0752
22,GCCGTCCA,0.0294
23,AGACGCTG,-0.0713
24,GGGTGTTA,-0.0098
25,ATGACCGC,-0.0622

row,Sequence,PBM E-score
1,CTTTCCGA,0.0435
2,CGCGAACA,0.0739
3,AATTGCTC,-0.0353
4,ACTGATCA,0.17
5,ATGCAACG,-0.0472
6,AGGTATGA,0.128
7,ACAACGTC,-0.0665
8,GGCTTCCA,-0.192
9,ATGATAAC,0.262
10,GATGAGCC,-0.103
11,GGATTCCA,0.151
12,CACGGGTC,-0.167
13,CGCCCCTC,-0.173
14,ATCACATA,0.291
15,CACCATGA,-0.0418
16,CAGATCTA,-0.164
17,GACGGTAC,-0.0824
18,ATGCATAG,-0.086
19,CGCTAAGA,-0.104
20,GCGTAAGC,0.227
21,CCGTGTAG,0.00318
22,CAGCTATA,0.138
23,CGAATCAA,0.243
24,CGCGTGCA,-0.164
25,CTCAGTCC,-0.138

row,Sequence,PBM E-score
1,CAACCATA,0.153
2,CCTTGCCA,-0.0988
3,ATACTAAG,0.012
4,GAATTCCC,-0.0812
5,CCGAGAAA,0.198
6,ATGCTGCC,-0.00436
7,ACTAGCAG,-0.0148
8,CTGTAGTC,-0.017
9,AGCTCTAC,-0.0194
10,AGGGTCAA,0.134
11,CCAGCAGC,-0.116
12,GGTAATAC,0.168
13,ATAAGTTA,0.186
14,GTCGTAAC,-0.107
15,AGCCCTTA,-0.185
16,ACCGATAA,0.123
17,GAAGCGCA,0.00479
18,GCCTCTAC,-0.247
19,ATAAAAGC,0.127
20,TTACCAAA,0.223
21,AGTGGTTC,-0.0524
22,GATGAGGC,-0.153
23,ACGTCAGT,-0.12
24,GACGTATA,-0.035
25,CACGCCAA,-0.0595

row,Sequence,PBM E-score
1,CACGTCGG,-0.18
2,CAATCGGA,0.157
3,CCTGTACG,-0.161
4,AGTGTCGG,-0.0423
5,CAGGCAGG,-0.124
6,GCCCGCGC,-0.0109
7,AATCGTCA,0.0536
8,ACCGTAGG,-0.362
9,CACCCCTG,-0.126
10,CGGCGACG,-0.0819
11,CGCGTTAA,0.00016
12,CCTATCCG,-0.0857
13,AATCGTGA,0.00493
14,AGAAAAGG,0.00134
15,ATAAACGG,0.11
16,GATGATAC,0.103
17,TACATACA,0.238
18,GCTAATAA,0.0536
19,ACGTTTTG,0.0665
20,CGCGGTTA,0.0553
21,GTCTAAAA,-0.162
22,CCGGTGAG,-0.0175
23,GGCGAGCA,-0.0499
24,GGATTGCA,0.0742
25,AAAGGTGA,-0.0471

row,Sequence,PBM E-score
1,GGGAGATA,-0.0684
2,AGAGAATC,0.0813
3,CGAACACA,0.102
4,CCGATCGC,-0.101
5,TCATCGAA,0.0464
6,AGTATGAT,0.203
7,AGGCACCT,-0.218
8,AATCTGCT,-0.0109
9,AGGTTGCC,-0.129
10,CTCAATCA,0.0973
11,CCTGGCCC,-0.257
12,ACGTAACG,0.214
13,CTAAGTAA,0.0623
14,AGCGCAAG,-0.0811
15,AGTGGGTC,-0.255
16,CTCCGTCA,-0.139
17,GGTGCCAC,-0.227
18,TAATGATA,0.298
19,AAAATGAT,0.256
20,ACGCTCTA,-0.159
21,CTTTCCCA,-0.115
22,CGCTGCGA,0.0622
23,AGCGTAAC,0.145
24,GACGAGTC,-0.158
25,CCGTTACG,0.0353

# Copied from the list:
# PBM E-score with ACGTAACG is entered as 0.214
# PBM E-score with CCGATCGC is entered as -0.101
# PBM E-score with AGTATGAT is entered as 0.203
# PBM E-score with AAAATGAT is entered as 0.256

# Further records.

row,Sequence,PBM E-score
1,AAAGTTGG,0.114
2,ACGCCGAT,-0.0769
3,GAGCGTAA,0.202
4,AGCCAACT,-0.0647
5,AACTGATT,0.124
6,GGAAGACC,-0.236
7,GCAAAGGC,-0.21
8,CACATAAG,0.109
9,AGTATACT,-0.068
10,CACCGGGA,-0.0974
11,ATTAGAAA,-0.0685
12,CATTTAGC,-0.00673
13,GTAGAAGA,-0.121
14,AATACGAA,0.149
15,CCGCCCTA,-0.304
16,AACAGCTA,0.0505
17,GAAGAGAC,-0.0477
18,CACAACCC,0.0423
19,CCATATAA,0.0704
20,AGCGTGCG,0.032
21,TAGGGACA,0.0691
22,AAGAAGGG,-0.129
